Experimental findings from doi:10.1101/215160 are described below.

Sequences of proteins named here, by UniProt entry; tags and fusion partners are left off.
UniProt Q15437: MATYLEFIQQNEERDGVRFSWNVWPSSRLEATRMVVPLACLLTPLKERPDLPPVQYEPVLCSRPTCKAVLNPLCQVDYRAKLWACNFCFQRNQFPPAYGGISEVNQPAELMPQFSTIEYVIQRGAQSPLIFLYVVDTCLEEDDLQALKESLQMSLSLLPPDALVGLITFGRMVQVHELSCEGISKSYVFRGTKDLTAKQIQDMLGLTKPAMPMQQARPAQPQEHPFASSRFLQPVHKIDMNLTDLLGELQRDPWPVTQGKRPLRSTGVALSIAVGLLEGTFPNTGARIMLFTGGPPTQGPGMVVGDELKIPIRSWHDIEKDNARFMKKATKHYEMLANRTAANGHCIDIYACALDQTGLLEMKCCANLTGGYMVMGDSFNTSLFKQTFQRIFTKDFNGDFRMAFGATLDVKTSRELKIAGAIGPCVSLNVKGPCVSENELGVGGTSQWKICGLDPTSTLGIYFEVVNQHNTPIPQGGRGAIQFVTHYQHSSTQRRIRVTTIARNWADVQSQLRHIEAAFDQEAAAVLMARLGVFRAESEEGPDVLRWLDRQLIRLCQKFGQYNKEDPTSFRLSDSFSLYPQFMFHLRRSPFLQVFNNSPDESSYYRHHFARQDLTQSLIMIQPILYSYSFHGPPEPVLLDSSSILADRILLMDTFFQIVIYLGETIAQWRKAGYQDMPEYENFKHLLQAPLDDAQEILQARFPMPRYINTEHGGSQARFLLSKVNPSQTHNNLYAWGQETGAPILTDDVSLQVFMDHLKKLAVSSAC
UniProt Q15436: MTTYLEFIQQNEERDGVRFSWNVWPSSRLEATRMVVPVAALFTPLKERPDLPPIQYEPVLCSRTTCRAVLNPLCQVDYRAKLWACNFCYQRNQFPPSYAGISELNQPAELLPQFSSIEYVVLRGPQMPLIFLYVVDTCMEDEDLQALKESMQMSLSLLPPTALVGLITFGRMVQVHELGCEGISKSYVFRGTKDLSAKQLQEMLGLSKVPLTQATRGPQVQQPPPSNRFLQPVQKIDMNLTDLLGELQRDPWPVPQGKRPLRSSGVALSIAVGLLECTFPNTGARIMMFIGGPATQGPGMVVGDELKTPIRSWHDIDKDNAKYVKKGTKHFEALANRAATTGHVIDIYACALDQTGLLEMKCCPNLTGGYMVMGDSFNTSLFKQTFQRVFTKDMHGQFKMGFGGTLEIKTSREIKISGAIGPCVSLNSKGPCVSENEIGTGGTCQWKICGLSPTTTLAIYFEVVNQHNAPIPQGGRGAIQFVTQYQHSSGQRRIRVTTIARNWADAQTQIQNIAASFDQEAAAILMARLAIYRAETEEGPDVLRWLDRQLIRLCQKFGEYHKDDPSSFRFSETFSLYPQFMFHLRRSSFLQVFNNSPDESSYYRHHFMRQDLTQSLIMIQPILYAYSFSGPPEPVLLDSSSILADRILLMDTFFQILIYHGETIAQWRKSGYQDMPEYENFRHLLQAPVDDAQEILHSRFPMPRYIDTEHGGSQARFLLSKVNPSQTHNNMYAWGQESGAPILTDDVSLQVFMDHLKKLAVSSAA

Assay [1] concerns the target FLAG-tagged SEC23B (not stated (human or mouse cDNA cloned)) (UniProt Q15437). The experiment in a line: co-IP.
The target of assay [2] is FLAG-tagged SEC23A (not stated (human or mouse cDNA cloned)) (UniProt Q15436). Kind of assay: co-IP.

No constants are given. Whether binding was seen depends on the method and setting. Binding seen in cells or lysates may run through a third protein. Some binding calls cover weakened binding; strength is not graded here. Sequences can lack the tags named with a protein.

B1: RFP-tagged SEC24A (protein, UniProt O95486 1-1093)
chain: MSQPGIPASGGAPASLQAQNGAALASGSPYTNGPVQNALLSSQESVSQGYNFQLPGSYPHPIPAKTLNPVSGQSNYGGSQGSGQTLNRPPVASNPVTPSLHSGPAPRMPLPASQNPATTPMPSSSFLPEANLPPPLNWQYNYPSTASQTNHCPRASSQPTVSGNTSLTTNHQYVSSGYPSLQNSFIKSGPSVPPLVNPPLPTTFQPGAPHGPPPAGGPPPVRALTPLTSSYRDVPQPLFNSAVNQEGITSNTNNGSMVVHSSYDEIEGGGLLATPQLTNKNPKMSRSVGYSYPSLPPGYQNTTPPGATGVPPSSLNYPSGPQAFTQTPLGANHLTTSMSGLSLQPEGLRVVNLLQERNMLPSTPLKPPVPNLHEDIQKLNCNPELFRCTLTSIPQTQALLNKAKLPLGLLLHPFKDLVQLPVVTSSTIVRCRSCRTYINPFVSFLDQRRWKCNLCYRVNDVPEEFLYNPLTRVYGEPHRRPEVQNATIEFMAPSEYMLRPPQPPVYLFVFDVSHNAVETGYLNSVCQSLLDNLDLLPGNTRTKIGFITFDSTIHFYGLQESLSQPQMLIVSDIEDVFIPMPENLLVNLNESKELVQDLLKTLPQMFTKTLETQSALGPALQAAFKLMSPTGGRMSVFQTQLPTLGVGALKPREEPNHRSSAKDIHMTPSTDFYKKLALDCSGQQVAVDLFLLSGQYSDLASLGCISRYSAGSVYYYPSYHHQHNPVQVQKLQKELQRYLTRKIGFEAVMRIRCTKGLSIHTFHGNFFVRSTDLLSLPNVNPDAGYAVQMSVEESLTDTQLVSFQSALLYTSSKGERRIRVHTLCLPVVSTLNDVFLGADVQAISGLLANMAVDRSMTASLSDARDALVNAVIDSLSAYRSSVLSNQQPGLMVPFSLRLFPLFVLALLKQKSFQTGTNARLDERIFAMCQVKNQPLVYLMLTTHPSLYRVDNLSDEGALNISDRTIPQPPILQLSVEKLSRDGAFLMDAGSVLMLWVGKNCTQNFLSQVLGVQNYASIPQPMTDLPELDTPESARIIAFISWLREQRPFFPILYVIRDESPMKANFLQNMIEDRTESALSYYEFLLHIQQQVNK
Consider B1, for which the binding result in assay [1] was “binds”.

B2: RFP-tagged SEC24B (protein, UniProt O95487 1-1268)
chain: MSAPAGSSHPAASARIPPKFGGAAVSGAAAPAGPGAGPAPHQQNGPAQNQMQVPSGYGLHHQNYIAPSGHYSQGPGKMTSLPLDTQCGDYYSALYTVPTQNVTPNTVNQQPGAQQLYSRGPPAPHIVGSTLGSFQGAASSASHLHTSASQPYSSFVNHYNSPAMYSASSSVASQGFPSTCGHYAMSTVSNAAYPSVSYPSLPAGDTYGQMFTSQNAPTVRPVKDNSFSGQNTAISHPSPLPPLPSQQHHQQQSLSGYSTLTWSSPGLPSTQDNLIRNHTGSLAVANNNPTITVADSLSCPVMQNVQPPKSSPVVSTVLSGSSGSSSTRTPPTANHPVEPVTSVTQPSELLQQKGVQYGEYVNNQASSAPTPLSSTSDDEEEEEEDEEAGVDSSSTTSSASPMPNSYDALEGGSYPDMLSSSASSPAPDPAPEPDPASAPAPASAPAPVVPQPSKMAKPFGYGYPTLQPGYQNATAPLISGVQPSNPVYSGFQQYPQQYPGVNQLSSSIGGLSLQSSPQPESLRPVNLTQERNILPMTPVWAPVPNLNADLKKLNCSPDSFRCTLTNIPQTQALLNKAKLPLGLLLHPFRDLTQLPVITSNTIVRCRSCRTYINPFVSFIDQRRWKCNLCYRVNDVPEEFMYNPLTRSYGEPHKRPEVQNSTVEFIASSDYMLRPPQPAVYLFVLDVSHNAVEAGYLTILCQSLLENLDKLPGDSRTRIGFMTFDSTIHFYNLQEGLSQPQMLIVSDIDDVFLPTPDSLLVNLYESKELIKDLLNALPNMFTNTRETHSALGPALQAAFKLMSPTGGRVSVFQTQLPSLGAGLLQSREDPNQRSSTKVVQHLGPATDFYKKLALDCSGQQTAVDLFLLSSQYSDLASLACMSKYSAGCIYYYPSFHYTHNPSQAEKLQKDLKRYLTRKIGFEAVMRIRCTKGLSMHTFHGNFFVRSTDLLSLANINPDAGFAVQLSIEESLTDTSLVCFQTALLYTSSKGERRIRVHTLCLPVVSSLADVYAGVDVQAAICLLANMAVDRSVSSSLSDARDALVNAVVDSLSAYGSTVSNLQHSALMAPSSLKLFPLYVLALLKQKAFRTGTSTRLDDRVYAMCQIKSQPLVHLMKMIHPNLYRIDRLTDEGAVHVNDRIVPQPPLQKLSAEKLTREGAFLMDCGSVFYIWVGKGCDNNFIEDVLGYTNFASIPQKMTHLPELDTLSSERARSFITWLRDSRPLSPILHIVKDESPAKAEFFQHLIEDRTEAAFSYYEFLLHVQQQICK
Take B2: the binding entry in assay [2] and in assay [1] was “binds” throughout.
